In all, about 52,000 sequences went through this assay and about 210 (0.4%) were called active.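 The calls were made as follows: active = gene whose silencing raises cell survival under the drug, median off-target-corrected z-score across its silencing RNAs 2 or more; inactive = the rest.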 The list shows a part of the results.
Assay: Resistance to Poly (ADP-Ribose) Polymerase inhibitor: Gene Identification via Genome-wide siRNA Screen
Conditions: mouse BRCA2 R2336H ES cells, olaparib, CellTiter-Glo viability; stronger effect = higher value
Outline: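 Genome-wide siRNA screen (3 siRNAs/gene, 20 nM) in mouse ES cells carrying hypomorphic BRCA2 R2336H; olaparib 500 nM added 48 h post-transfection, CellTiter-Glo viability 72 h later. Normalized to plate-median negative control; MAD z-scores, gene median, seed-adjusted.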

| Sequence | z-score |
| --- | --- |
| GCAAAGAGGCCUAAUUGAATT against B2m | inactive: 0.968 |
| CGUGAAGAUUGACGUGUUUTT against Pcyox1 | inactive: 0.98 |
| CGAGAUCUUUCCUAGUUUUTT against Mad | inactive: 0.982 |
| CGCCGGAAGUUCUACCACUTT against BC010787 | inactive: -2.4 |
| GUGGUCUUUAUCGGCAUGATT against Slc35c1 | inactive: -0.605 |
| GGAGCUCAAGAACAGGAUGTT against Tna | inactive: 1.03 |
| GCCUCUAACAAAACUAGGCTT against 1100001I22Rik | inactive: -3.05 |
| GCACAGUUCCAACUUCGUUTT against 4932418K24Rik | inactive: 1.49 |
| GGAAGUCCAAGAGAGGUUGTT against Dom3z | inactive: -0.826 |
| GGUGUAGAAAUAAAGUGAGTT against Mbl2 | inactive: 0.272 |
| GGGAUGCCAUCGUGUUUCUTT against Ccl17 | inactive: -0.78 |
| GGCUUUUUGGCUCAAAAAUTT against Spg21 | inactive: 0.00256 |
| CGAGAAAAACAACUCCUUUTT against C330039G02Rik | inactive: 0.649 |
| GCAUAAUUUCAGUGGCAAATT against Fbxo12 | inactive: -0.254 |
| GGACAGUUCUAAAAUUCCCTT against Olfr780 | inactive: -0.324 |
| GGUCUUUCUGGCAAUUCUCTT against Zfp31 | inactive: -1.07 |
| GGUUGAAGCAGAAGAUAAUTT against 2210409M21Rik | inactive: 0.872 |
| GGCCUUAACCUGAUAGUUGTT against Nt5m | inactive: 1.34 |
| CGUAAAUUCACCAAGGAGCTT against Slc19a1 | inactive: 0.688 |
| CGUUCUUCAUGAAACAUUCTT against Ryr3 | inactive: -1.49 |
| GCACUCGAAUUUCUUUACUTT against Slc23a2 | inactive: 0.45 |
| CGGUUCCAACCUUGAAAAATT against H1fx | inactive: 0.06 |
| CCUCUACUUAAUGUGCAACTT against Npc1l1 | inactive: 1.51 |
| CCACUCAAGCGGUAAGGAUTT against Slc22a1 | inactive: -0.343 |
| GGAGAGAAGUGACAACGAATT against Adamts8 | inactive: -0.13 |
| GGUUCCGUUUAAUGAAGUGTT against Fxr1h | inactive: 0.913 |
| GGGUCAGAAAAGUCUGUCATT against Vangl1 | inactive: -1.46 |
| CCUGACCGUUAACAGCUGUTT against Aamp | inactive: -0.0169 |
| CCGGAGUGACCAUAUUCGUTT against Fgr | inactive: 0.258 |

A section of the results above:

| Sequence | z-score |
| --- | --- |
| CCUGACCGUUAACAGCUGUTT against Aamp | inactive: -0.0169 |
| CCGGAGUGACCAUAUUCGUTT against Fgr | inactive: 0.258 |
